Test results reported in PMC10653890, “The morphogenic protein CopD controls the spatio-temporal dynamics of PBP1a and PBP2b in Streptococcus pneumoniae” (mBio, 2023).

Columns and labels:
[1] = biological target: CopD (Spr1400), T25 fusion for bacterial two-hybrid (Streptococcus pneumoniae); assay: two-hybrid; BACTH (bacterial adenylate cyclase two-hybrid) in E. coli BTH101; T25 fused to the N-terminus of CopD, T18 to the N-terminus of the PBPs and derivatives; LB agar with IPTG 0.5 mM and X-gal, room temperature, blue colonies at 24-72 hours
[2] = biological target: CopD-sfGFP (Streptococcus pneumoniae); assay: co-IP; GFP-TRAP resin on Triton X-100 extract of S. pneumoniae copD-sfGFP cells (PcomX-sfGFP cells as control); immunoblot with anti-GFP, anti-PBP1a and anti-PBP2b antibodies

B1: PBP2a, fusion for bacterial two-hybrid (protein, UniProt Q8DNB6 1-731)
chain: MKLDKLFEKFLSLFKKETSELEDSDSTILRRSRSDRKKLAQVGPIRKFWRRYHLTKIILILGLSAGLLVGIYLFAVAKSTNVNDLQNALKTRTLIFDREEKEAGALSGQKGTYVELTDISKNLQNAVIATEDRSFYKNDGINYGRFFLAIVTAGRSGGGSTITQQLAKNAYLSQDQTVERKAKEFFLALELSKKYSKEQILTMYLNNAYFGNGVWGVEDASKKYFGVSASEVSLDQAATLAGMLKGPELYNPLNSVEDSTNRRDTVLQNMVAAGYIDKNQETEAAEVDMTSQLHDKYEGKISDYRYPSYFDAVVNEAVSKYNLTEEEIVNNGYRIYTELDQNYQANMQIVYENTSLFPRAEDGTFAQSGSVALEPKTGGVRGVVGQVADNDKTGFRNFNYATQSKRSPGSTIKPLVVYTPAVEAGWALNKQLDNHTMQYDSYKVDNYAGIKTSREVPMYQSLAESLNLPAVATVNDLGVDKAFEAGEKFGLNMEKVDRVLGVALGSGVETNPLQMAQAYAAFANEGLMPEAHFISRIENASGQVIASHKNSQKRVIDKSVADKMTSMMLGTFTNGTGISSSPADYVMAGKTGTTEAVFNPEYTSDQWVIGYTPDVVISHWLGFPTTDENHYLAGSTSNGAAHVFRNIANTILPYTPGSTFTVENAYKQNGIAPANTKRQVQTNDNSQTDDNLSDIRGRAQSLVDEASRAISDAKIKEKAQTIWDSIVNLFR
binding [1]: no binding

B2: PBP1a, T18 fusion for bacterial two-hybrid (protein, UniProt Q8DR59 1-719)
chain: MNKPTILRLIKYLSISFLSLVIAAIVLGGGVFFYYVSKAPSLSESKLVATTSSKIYDNKNQLIADLGSERRVNAQANDIPTDLVKAIVSIEDHRFFDHRGIDTIRILGAFLRNLQSNSLQGGSALTQQLIKLTYFSTSTSDQTISRKAQEAWLAIQLEQKATKQEILTYYINKVYMSNGNYGMQTAAQNYYGKDLNNLSLPQLALLAGMPQAPNQYDPYSHPEAAQDRRNLVLSEMKNQGYISAEQYEKAVNTPITDGLQSLKSASNYPAYMDNYLKEVINQVEEETGYNLLTTGMDVYTNVDQEAQKHLWDIYNTDEYVAYPDDELQVASTIVDVSNGKVIAQLGARHQSSNVSFGINQAVETNRDWGSTMKPITDYAPALEYGVYESTATIVHDEPYNYPGTNTPVYNWDRGYFGNITLQYALQQSRNVPAVETLNKVGLNRAKTFLNGLGIDYPSIHYSNAISSNTTESDKKYGASSEKMAAAYAAFANGGTYYKPMYIHKVVFSDGSEKEFSNVGTRAMKETTAYMMTDMMKTVLSYGTGRNAYLAWLPQAGKTGTSNYTDEEIENHIKTSQFVAPDELFAGYTRKYSMAVWTGYSNRLTPLVGNGLTVAAKVYRSMMTYLSEGSNPEDWNIPEGLYRNGEFVFKNGARSTWSSPAPQQPPSTESSSSSSDSSTSQSSSTTPSTNNSTTTNPNNNTQQSNTTPDQQNQNPQPAQP
binding [1]: binds

B3: PBP1a in S. pneumoniae cells (co-immunoprecipitation) (protein, UniProt Q8DR59 1-719)
chain: B2 chain
binding [2]: binds

Results are given in words; binding and its absence hold for the method and conditions named. Binding calls can cover weak binding; strength is not graded here. For part of these data: Tags and fused reporters may be left off the sequences shown. For part of these data: Binding seen in cells or lysates may run through a third protein.
